Reference: PMC9098493
These are yes or no findings as the source states them, for the method shown. Binding seen in cells or lysates may run through a third protein. These calls come from enrichment with a bait or labelling near it, and not all partners need be listed.

Protein sequences, listed by entry. Tags and fused reporters are not part of them.
UniProt Q96524: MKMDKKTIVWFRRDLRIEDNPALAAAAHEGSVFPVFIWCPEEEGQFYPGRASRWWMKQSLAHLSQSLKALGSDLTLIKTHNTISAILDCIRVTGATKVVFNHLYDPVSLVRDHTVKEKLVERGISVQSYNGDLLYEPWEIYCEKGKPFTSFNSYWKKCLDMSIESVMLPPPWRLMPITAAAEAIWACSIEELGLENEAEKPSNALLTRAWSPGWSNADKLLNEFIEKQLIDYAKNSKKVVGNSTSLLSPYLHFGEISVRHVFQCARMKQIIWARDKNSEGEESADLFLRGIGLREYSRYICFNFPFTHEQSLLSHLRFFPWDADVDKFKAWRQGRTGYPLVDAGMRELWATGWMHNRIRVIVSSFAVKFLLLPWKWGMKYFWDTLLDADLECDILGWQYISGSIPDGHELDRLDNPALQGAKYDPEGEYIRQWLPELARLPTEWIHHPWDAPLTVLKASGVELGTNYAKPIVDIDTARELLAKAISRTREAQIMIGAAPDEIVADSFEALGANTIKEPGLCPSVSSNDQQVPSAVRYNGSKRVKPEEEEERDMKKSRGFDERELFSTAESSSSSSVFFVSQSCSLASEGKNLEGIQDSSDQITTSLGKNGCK
UniProt Q9C7G4: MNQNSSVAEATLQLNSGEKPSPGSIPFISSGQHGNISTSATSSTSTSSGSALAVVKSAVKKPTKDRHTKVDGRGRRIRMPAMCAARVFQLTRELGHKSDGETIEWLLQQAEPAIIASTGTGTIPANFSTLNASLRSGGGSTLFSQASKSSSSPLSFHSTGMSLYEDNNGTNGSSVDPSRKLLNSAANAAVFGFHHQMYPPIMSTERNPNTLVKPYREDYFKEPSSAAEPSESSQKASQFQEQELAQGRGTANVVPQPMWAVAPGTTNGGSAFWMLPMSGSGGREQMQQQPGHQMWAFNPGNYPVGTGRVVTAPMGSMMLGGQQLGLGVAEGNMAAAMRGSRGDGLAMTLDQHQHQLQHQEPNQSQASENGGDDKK

Molecular target: GFP-CRY2 fusion protein from Arabidopsis seedlings overexpressing GFP-CRY2 (Arabidopsis) (UniProt Q96524)
Test: affinity purification with mass spectrometry; GFP-trap beads on extract of Arabidopsis seedlings overexpressing GFP-CRY2; dark or blue light (30 μmol m^-2 s^-1); NEB buffer with 1% Triton X-100; label-free quantification

## TEOSINTE BRANCHED1-CYCLOIDEA-PCF 22 (TCP22), endogenous in GFP-CRY2 seedlings (from UniProt Q9C7G4 1-375)
  binding: binds
